The source of these data is article PMC9976904.

Sequences of proteins named here, by UniProt entry; tags and fusion partners are left off. A change or cut given only in a name is not applied to a line headed by its entry. A line that says so, or that is headed by a name, gives the form on record, which may keep a tag or linker.
UniProt P60842: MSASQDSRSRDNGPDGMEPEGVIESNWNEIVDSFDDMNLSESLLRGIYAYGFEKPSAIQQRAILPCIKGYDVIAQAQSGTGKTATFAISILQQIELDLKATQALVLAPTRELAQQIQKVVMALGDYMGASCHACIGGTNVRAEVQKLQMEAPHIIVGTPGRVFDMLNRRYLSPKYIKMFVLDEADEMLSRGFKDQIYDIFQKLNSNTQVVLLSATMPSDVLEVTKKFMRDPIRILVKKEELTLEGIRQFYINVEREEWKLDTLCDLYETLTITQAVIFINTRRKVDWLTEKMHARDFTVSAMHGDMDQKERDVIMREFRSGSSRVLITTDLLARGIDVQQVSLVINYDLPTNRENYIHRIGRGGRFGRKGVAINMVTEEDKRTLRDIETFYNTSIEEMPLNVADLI
mCitrine-eIF4A1^DQAD (FRET acceptor) (P60842, form named): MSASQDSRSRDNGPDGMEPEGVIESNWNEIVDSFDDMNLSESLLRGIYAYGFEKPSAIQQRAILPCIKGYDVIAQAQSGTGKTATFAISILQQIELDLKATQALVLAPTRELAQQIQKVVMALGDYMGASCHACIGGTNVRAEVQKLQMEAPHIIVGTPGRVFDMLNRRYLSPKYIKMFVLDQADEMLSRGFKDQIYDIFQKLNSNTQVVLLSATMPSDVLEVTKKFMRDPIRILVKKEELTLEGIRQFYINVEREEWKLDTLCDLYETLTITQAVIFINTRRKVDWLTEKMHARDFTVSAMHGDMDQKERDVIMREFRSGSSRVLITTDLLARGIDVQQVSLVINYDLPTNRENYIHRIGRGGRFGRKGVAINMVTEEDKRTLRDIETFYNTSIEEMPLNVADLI

The assay has as its target mTurquoise-eIF4A1 wild-type (FRET donor) (human) (UniProt P60842). Put plainly: FRET or BRET; FLIM-FRET in live HeLa cells 48 h after co-transfection of mTurquoise- (donor) and mCitrine- (acceptor) tagged eIF4A1; donor lifetime, frequency domain, excitation 436 nm. Background: BRET reads energy transfer from a luciferase to a nearby fluorophore.

No constants are given. Whether binding was seen depends on the method and setting. Binding seen in cells or lysates may run through a third protein. Some binding calls cover weakened binding; strength is not graded here.

Turning to “mCitrine-eIF4A1^DQAD (FRET acceptor) (from UniProt P60842 1-406) (enzyme)”, the binding entry was “binds”.
